Measured values reported in the supplement of paper PMC8728848.
Some of the results follow.

Tests used:
Experiment in all cases: glycan array binding signal (z-score within array); higher = stronger binding
Details in all cases: glycan notation: IUPAC condensed, linker removed
Gal(a1-3)GalNAc = molecular target: Gal(a1-3)GalNAc
Outline: (§1)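 The Consortium for Functional Glycomics database supplied 3228 glycan arrays, of which those lacking an available protein sequence were dropped. The binding signal, a within-array Z-score, was averaged across arrays of the same protein sequence and across linkers. Negative scores can be read as non-binding.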

[1] = molecular target: Gal(a1-3)[Gal(a1-4)]Gal(b1-4)GlcNAc
Outline: as §1

[2] = molecular target: Gal(a1-4)Gal(b1-3)GlcNAc(b1-2)Man(a1-3)[Gal(a1-4)Gal(b1-3)GlcNAc(b1-2)Man(a1-6)]Man(b1-4)GlcNAc(b1-4)GlcNAc
Outline: as §1

Gal(a1-4)Gal(b1-4)Glc = molecular target: Gal(a1-4)Gal(b1-4)Glc
Outline: as §1

Gal(a1-4)Gal(b1-4)GlcNAc = molecular target: Gal(a1-4)Gal(b1-4)GlcNAc
Outline: as §1

[3] = molecular target: Gal(a1-4)Gal(b1-4)GlcNAc(b1-2)Man(a1-3)[Gal(a1-4)Gal(b1-4)GlcNAc(b1-2)Man(a1-6)]Man(b1-4)GlcNAc(b1-4)GlcNAc
Outline: as §1

[4] = molecular target: Gal(a1-4)Gal(b1-4)GlcNAc(b1-3)Gal(b1-4)Glc
Outline: as §1

Gal(a1-4)GlcNAc = molecular target: Gal(a1-4)GlcNAc
Outline: as §1

Gal(a1-6)Glc = molecular target: Gal(a1-6)Glc
Outline: as §1

Gal(b1-2)Gal = molecular target: Gal(b1-2)Gal
Outline: as §1

Gal(b1-3)Gal = molecular target: Gal(b1-3)Gal
Outline: as §1

Gal(b1-3)Gal(b1-4)GlcNAc = molecular target: Gal(b1-3)Gal(b1-4)GlcNAc
Outline: as §1

[5] = molecular target: Gal(b1-3)Gal(b1-4)GlcNAc(b1-2)Man(a1-3)[Gal(b1-3)Gal(b1-4)GlcNAc(b1-2)Man(a1-6)]Man(b1-4)GlcNAc(b1-4)GlcNAc
Outline: as §1

Gal(b1-3)GalNAc = molecular target: Gal(b1-3)GalNAc
Outline: as §1

[6] = molecular target: Gal(b1-3)GalNAc(a1-3)[Fuc(a1-2)]Gal(b1-4)Glc
Outline: as §1

[7] = molecular target: Gal(b1-3)GalNAc(a1-3)[Fuc(a1-2)]Gal(b1-4)GlcNAc
Outline: as §1

[8] = molecular target: Gal(b1-3)GalNAc(b1-3)Gal(a1-4)Gal(b1-4)Glc
Outline: as §1

[9] = molecular target: Gal(b1-3)GalNAc(b1-4)Gal(b1-4)Glc
Outline: as §1

[10] = molecular target: Gal(b1-3)GalNAc(b1-4)[Neu5Ac(a2-3)]Gal(b1-4)Glc
Outline: as §1

Gal(b1-3)GlcNAc = molecular target: Gal(b1-3)GlcNAc
Outline: as §1

[11] = molecular target: Gal(b1-3)GlcNAc(a1-6)Gal(b1-4)GlcNAc
Outline: as §1

[12] = molecular target: Gal(b1-3)GlcNAc(b1-2)Man(a1-3)[Gal(b1-3)GlcNAc(b1-2)Man(a1-6)]Man(b1-4)GlcNAc(b1-4)GlcNAc
Outline: as §1

[13] = molecular target: Gal(b1-3)GlcNAc(b1-2)Man(a1-3)[Gal(b1-3)GlcNAc(b1-2)Man(a1-6)]Man(b1-4)GlcNAc(b1-4)[Fuc(a1-6)]GlcNAc
Outline: as §1

[14] = molecular target: Gal(b1-3)GlcNAc(b1-3)Gal(b1-3)GlcNAc
Outline: as §1

[15] = molecular target: Gal(b1-3)GlcNAc(b1-3)Gal(b1-4)Glc
Outline: as §1

[16] = molecular target: Gal(b1-3)GlcNAc(b1-3)Gal(b1-4)GlcNAc
Outline: as §1

[17] = molecular target: Gal(b1-3)GlcNAc(b1-3)Gal(b1-4)GlcNAc(b1-6)[Gal(b1-3)GlcNAc(b1-3)]Gal(b1-4)Glc
Outline: as §1

[18] = molecular target: Gal(b1-3)GlcNAc(b1-3)Gal(b1-4)[Fuc(a1-3)]GlcNAc(b1-6)[Gal(b1-3)GlcNAc(b1-3)]Gal(b1-4)Glc
Outline: as §1

[19] = molecular target: Gal(b1-3)GlcNAc(b1-3)GalNAc
Outline: as §1

[20] = molecular target: Gal(b1-3)GlcNAc(b1-6)Gal(b1-4)GlcNAc
Outline: as §1

[21] = molecular target: Gal(b1-3)[Fuc(a1-4)]GlcNAc
Outline: as §1

[22] = molecular target: Gal(b1-3)[Fuc(a1-4)]GlcNAc(b1-2)Man(a1-3)[Gal(b1-3)[Fuc(a1-4)]GlcNAc(b1-2)Man(a1-6)]Man(b1-4)GlcNAc(b1-4)GlcNAc
Outline: as §1

[23] = molecular target: Gal(b1-3)[Fuc(a1-4)]GlcNAc(b1-2)Man(a1-3)[Gal(b1-3)[Fuc(a1-4)]GlcNAc(b1-2)Man(a1-6)]Man(b1-4)GlcNAc(b1-4)[Fuc(a1-6)]GlcNAc
Outline: as §1

[24] = molecular target: Gal(b1-3)[Fuc(a1-4)]GlcNAc(b1-3)Gal(b1-3)[Fuc(a1-4)]GlcNAc
Outline: as §1

[25] = molecular target: Gal(b1-3)[Fuc(a1-4)]GlcNAc(b1-3)Gal(b1-4)GlcNAc
Outline: as §1

[26] = molecular target: Gal(b1-3)[Fuc(a1-4)]GlcNAc(b1-3)Gal(b1-4)[Fuc(a1-3)]GlcNAc
Outline: as §1

[27] = molecular target: Gal(b1-3)[GlcNAc(b1-6)]GalNAc
Outline: as §1

B1: PEB1 (Campylobacter jejuni), Q0P9X8 (protein)
chain: MVFRKSLLKLAVFALGACVAFSNANAAEGKLESIKSKGQLIVGVKNDVPHYALLDQATGEIKGFEVDVAKLLAKSILGDDKKIKLVAVNAKTRGPLLDNGSVDAVIATFTITPERKRIYNFSEPYYQDAIGLLVLKEKKYKSLADMKGANIGVAQAATTKKAIGEAAKKIGIDVKFSEFPDYPSIKAALDAKRVDAFSVDKSILLGYVDDKSEILPDSFEPQSYGIVTKKDDPAFAKYVDDFVKEHKNEIDALAKKWGL
glycan array binding signal (z-score) (Gal(a1-3)GalNAc): -0.041
glycan array binding signal (z-score) [1]: -0.307
glycan array binding signal (z-score) [2]: -0.8
glycan array binding signal (z-score) (Gal(a1-4)Gal(b1-4)Glc): -0.339
glycan array binding signal (z-score) (Gal(a1-4)Gal(b1-4)GlcNAc): 0.544
glycan array binding signal (z-score) [3]: 3.37
glycan array binding signal (z-score) [4]: -0.039
glycan array binding signal (z-score) (Gal(a1-4)GlcNAc): 1.09
glycan array binding signal (z-score) (Gal(a1-6)Glc): 0.364
glycan array binding signal (z-score) (Gal(b1-2)Gal): 0.469
glycan array binding signal (z-score) (Gal(b1-3)Gal): -0.141
glycan array binding signal (z-score) (Gal(b1-3)Gal(b1-4)GlcNAc): -0.294
glycan array binding signal (z-score) [5]: 0.339
glycan array binding signal (z-score) (Gal(b1-3)GalNAc): -0.474
glycan array binding signal (z-score) [6]: 0.105
glycan array binding signal (z-score) [7]: -1.06
glycan array binding signal (z-score) [8]: 0.027
glycan array binding signal (z-score) [9]: 1.58
glycan array binding signal (z-score) [10]: 0.795
glycan array binding signal (z-score) (Gal(b1-3)GlcNAc): -0.055
glycan array binding signal (z-score) [11]: -0.33
glycan array binding signal (z-score) [12]: -0.715
glycan array binding signal (z-score) [13]: -0.287
glycan array binding signal (z-score) [14]: -0.245
glycan array binding signal (z-score) [15]: 0.682
glycan array binding signal (z-score) [16]: 0.523
glycan array binding signal (z-score) [17]: 0.831
glycan array binding signal (z-score) [18]: -0.346
glycan array binding signal (z-score) [19]: -0.491
glycan array binding signal (z-score) [20]: -0.047
glycan array binding signal (z-score) [21]: 0.13
glycan array binding signal (z-score) [22]: 4.54
glycan array binding signal (z-score) [23]: -0.092
glycan array binding signal (z-score) [24]: -0.144
glycan array binding signal (z-score) [25]: -0.327
glycan array binding signal (z-score) [26]: -0.196
glycan array binding signal (z-score) [27]: -1.2
